The assay deals with nucleotide-binding oligomerization domain-like receptor protein 3 (mouse (endogenous in BMDMs)) (UniProt Q8R4B8). Briefly: co-IP; lysates (RIPA buffer) of BMDMs treated with LPS and 5 mM ATP for 24 h, without or with calycosin (5 and 10 uM); immunoprecipitated with NLRP3 antibody or IgG control antibody with protein A/G beads; western blot. In general terms: In western blotting, separated proteins are transferred to a membrane and probed.

Chains of the proteins cited; added tags and fusions are not shown.
UniProt Q8R4B8: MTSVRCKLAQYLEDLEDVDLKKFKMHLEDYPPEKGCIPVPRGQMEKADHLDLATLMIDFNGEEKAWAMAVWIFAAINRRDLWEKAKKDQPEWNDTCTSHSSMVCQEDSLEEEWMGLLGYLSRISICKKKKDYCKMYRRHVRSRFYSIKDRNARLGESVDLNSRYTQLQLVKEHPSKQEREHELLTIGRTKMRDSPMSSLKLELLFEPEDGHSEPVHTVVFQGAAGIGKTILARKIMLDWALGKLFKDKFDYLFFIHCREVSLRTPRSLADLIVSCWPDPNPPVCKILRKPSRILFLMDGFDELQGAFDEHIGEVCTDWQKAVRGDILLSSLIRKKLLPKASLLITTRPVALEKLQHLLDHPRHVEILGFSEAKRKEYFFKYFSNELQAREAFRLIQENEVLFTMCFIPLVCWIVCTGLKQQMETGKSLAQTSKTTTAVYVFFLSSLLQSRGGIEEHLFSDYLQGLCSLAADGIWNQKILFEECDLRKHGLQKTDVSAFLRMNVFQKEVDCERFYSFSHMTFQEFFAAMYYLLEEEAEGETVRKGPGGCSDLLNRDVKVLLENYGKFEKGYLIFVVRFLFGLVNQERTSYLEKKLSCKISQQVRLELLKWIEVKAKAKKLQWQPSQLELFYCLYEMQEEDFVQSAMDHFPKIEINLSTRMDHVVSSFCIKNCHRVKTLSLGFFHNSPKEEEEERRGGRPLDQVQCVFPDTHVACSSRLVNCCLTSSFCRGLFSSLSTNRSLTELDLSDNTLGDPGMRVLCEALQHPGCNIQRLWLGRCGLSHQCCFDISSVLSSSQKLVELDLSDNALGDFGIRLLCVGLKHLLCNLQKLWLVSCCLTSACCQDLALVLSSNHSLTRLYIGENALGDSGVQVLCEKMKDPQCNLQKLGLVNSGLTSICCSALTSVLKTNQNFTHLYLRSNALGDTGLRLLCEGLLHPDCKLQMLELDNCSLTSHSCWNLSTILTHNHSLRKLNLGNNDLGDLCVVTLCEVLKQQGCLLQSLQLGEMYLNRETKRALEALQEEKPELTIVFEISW

No constants are given. Whether binding was seen depends on the method and setting. In cells and extracts the contact can be indirect. Some results given as binding are weak or reduced against the parent protein; the word gives no strength.

B1: caspase 1 (protein, UniProt P29452 1-402)
chain: MADKILRAKRKQFINSVSIGTINGLLDELLEKRVLNQEEMDKIKLANITAMDKARDLCDHVSKKGPQASQIFITYICNEDCYLAGILELQSAPSAETFVATEDSKGGHPSSSETKEEQNKEDGTFPGLTGTLKFCPLEKAQKLWKENPSEIYPIMNTTTRTRLALIICNTEFQHLSPRVGAQVDLREMKLLLEDLGYTVKVKENLTALEMVKEVKEFAACPEHKTSDSTFLVFMSHGIQEGICGTTYSNEVSDILKVDTIFQMMNTLKCPSLKDKPKVIIIQACRGEKQGVVLLKDSVRDSEEDFLTDAIFEDDGIKKAHIEKDFIAFCSSTPDNVSWRHPVRGSLFIESLIKHMKEYAWSCDLEDIFRKVRFSFEQPEFRLQMPTADRVTLTKRFYLFPGH
B1: the binding entry is listed as “binds”.

These data come from paper PMC8560711.
